# Primary screen of a compound library

Sequences of proteins named here, by UniProt entry; tags and fusion partners are left off. Residues count along the entry.
UniProt Q8IDJ8, 1-583: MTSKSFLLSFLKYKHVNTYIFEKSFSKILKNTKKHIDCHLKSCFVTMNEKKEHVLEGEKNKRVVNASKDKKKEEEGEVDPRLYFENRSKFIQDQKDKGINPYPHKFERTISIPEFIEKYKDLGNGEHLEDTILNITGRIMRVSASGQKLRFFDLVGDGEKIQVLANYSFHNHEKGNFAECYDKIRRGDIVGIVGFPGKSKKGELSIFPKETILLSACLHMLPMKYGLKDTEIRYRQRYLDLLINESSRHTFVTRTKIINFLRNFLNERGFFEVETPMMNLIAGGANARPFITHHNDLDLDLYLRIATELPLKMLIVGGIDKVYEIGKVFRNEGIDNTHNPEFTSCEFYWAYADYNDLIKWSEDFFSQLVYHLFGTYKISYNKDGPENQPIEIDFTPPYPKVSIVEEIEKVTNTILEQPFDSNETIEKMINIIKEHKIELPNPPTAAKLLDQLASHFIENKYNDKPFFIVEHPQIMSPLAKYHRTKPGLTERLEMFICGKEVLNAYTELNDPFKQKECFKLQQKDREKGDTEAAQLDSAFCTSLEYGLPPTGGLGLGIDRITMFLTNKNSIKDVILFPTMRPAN
UniProt P9WNZ1, whole entry: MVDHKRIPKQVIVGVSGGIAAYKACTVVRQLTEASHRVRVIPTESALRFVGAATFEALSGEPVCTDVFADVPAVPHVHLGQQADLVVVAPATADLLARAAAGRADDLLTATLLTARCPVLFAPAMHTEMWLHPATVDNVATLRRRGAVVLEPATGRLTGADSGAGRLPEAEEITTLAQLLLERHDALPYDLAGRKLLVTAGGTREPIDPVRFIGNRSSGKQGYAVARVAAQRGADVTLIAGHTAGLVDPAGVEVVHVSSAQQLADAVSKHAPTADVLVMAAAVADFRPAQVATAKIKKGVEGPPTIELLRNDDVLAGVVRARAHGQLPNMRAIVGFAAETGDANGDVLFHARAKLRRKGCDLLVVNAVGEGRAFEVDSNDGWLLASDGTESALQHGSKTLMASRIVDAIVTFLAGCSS

The values are deposited in ChEMBL (CHEMBL3988442, “University of Dundee, Small-Polar-MMV Screening Library” (2021)).

Values are the deposited “Percent Effect”, in %.
The record does not define 0% and 100%; most values in the screen are far below 50% and negative numbers occur (in some assays of this library far below -100).
The compounds are a random part of those screened.
A dash means the value is not listed here; it may have been measured.

A: 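Lysine-tRNA ligase, Plasmodium falciparum 3D7 (UniProt Q8IDJ8). Enzyme assay of the cytosolic lysyl-tRNA synthetase in 384-well plates, read by luminescence. Compounds at 30 µM. Direction is inferred from only a few compounds that gave an IC50; most scored high, so higher reads as stronger inhibition. About 69,000 compounds were tested under these conditions; 0.071% (about 49) showed 50% or more at least once.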
B: 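Assay of Toxoplasma gondii numbers, read through their beta-galactosidase reporter with a colour substrate. Tested at 10 µM. Higher reads as fewer parasites (inferred from which compounds were picked for retests). Size under these conditions: about 67,000 compounds, about 260 of them at 50% or above in at least one test.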
C: 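Coenzyme A biosynthesis protein CoaBC, Mycobacterium tuberculosis (UniProt P9WNZ1). Enzyme assay of CoaBC with a phosphate dye (Biomol Green) read at 650 nm. Concentration: 30 µM. Higher reads as stronger inhibition, judged from the few compounds that gave an IC50. Most strong results did not repeat in a second test. Size under these conditions: about 67,000 compounds, about 40 of them at 50% or above in at least one test.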

| compound | A | B | C |
|---|---|---|---|
| `Cn1cccc1C(=O)N1C[C@@H](OCc2ccncc2)[C@@H]2OCCC[C@@H]21` | 4.565 | - | 7.018 |
| `[H][C@@]12CS(=O)(=O)C[C@]1([H])N(C(=O)Nc1ccccc1Cl)CCN2CC1CC1` | - | -15.09 | - |
| `Cc1nc(C2CCCN2CC(=O)Nc2cc(C(C)(C)C)nn2C)no1` (stereo not drawn) | 1.174 | 6.219 | 3.655 |
| `CCc1c(C)noc1-c1cnc(NC2CC2)nc1-c1cnc(C)cn1` | 3.753 | 7.832 | -0.1236 |
| `COc1ccc2[nH]cc(C3CCN(CCC(N)=O)CC3)c2c1` | 4.067 | - | 4.551 |
| `CC(Cn1cccn1)NC(=O)N(C)Cc1ccc(Cl)s1` (stereo not drawn) | 11.46 | - | 0.2571 |
| `Cc1ccc(C(=O)N2CCC3(CCC(=O)N(CC(N)=O)C3)CC2)cc1` | 10.14 | -12.08 | -1.02 |
| `CC(=O)c1c(C)nn(S(=O)(=O)c2ccc(Cl)cc2)c1C` | 4.952 | 15.71 | 0.3468 |
| `Cc1occc1C(=O)N1CCC2(CCC2NC(=O)c2ccn(C)c2)CC1` (stereo not drawn) | -1.874 | 4.895 | 0.5141 |
| `Cc1ccc(S(=O)(=O)NCc2[nH]ncc2Br)cc1C` | 4.85 | -5.367 | 7.645 |
| `COc1cccc(CNCc2nnc3n2CC(C(F)(F)F)CC3)c1` (stereo not drawn) | -5.835 | -1.435 | 10.13 |
| `O=C(c1ccccc1)N1CC[C@H]2C[C@@H](c3nccs3)O[C@@H]2C1` | -0.5206 | - | 5.013 |
| `Cc1cc(C[C@@H]2CCC[C@H]2NCc2cc(C)c(O)c(C)c2)on1.O=C(O)CC(O)(CC(=O)O)C(=O)O` | - | -0.1922 | - |
| `Cc1ncsc1C(=O)N[C@@H](Cc1ccccc1)C(N)=O` | -0.2538 | -22.53 | 0 |
| `CCCc1nc(CNc2ccc(F)c(F)c2)no1` | 3.479 | -6.477 | 0.3891 |
| `COc1ccc(CNc2cnn(C)c(=O)c2Cl)cc1` | -0.114 | -13.84 | 1.828 |
| `CCCc1n[nH]c(C2CN(C(=O)c3cccc4cn[nH]c34)CCO2)n1` (stereo not drawn) | 1.438 | -30.97 | 2.682 |
| `CC(C)NC(=O)NC[C@H]1C[C@@H]2CCN1C[C@@H]2CN(C)c1ccccc1` | 1.538 | - | -24.06 |
| `CN(C)CCn1c2c(ccc1=O)CCN(C(=O)c1ccoc1)CC2` | 5.603 | - | -4.198 |
| `CCN(Cc1c(C)nn(CC)c1C)S(=O)(=O)c1cnn(C)c1` | 3.951 | 2.288 | 0.2551 |
| `CN(C)S(=O)(=O)N1CC[C@]2(C[C@H](OCc3ccncc3)CO2)C1` | -0.5143 | - | -5.943 |
| `COc1cccc(C(C(=O)O)N2CCC(Cn3cccn3)CC2)c1OC` (stereo not drawn) | 2.608 | 0.8511 | 1.394 |
| `[H][C@]12CC[C@]([H])(CN(C3Cc4ccccc4C3)C1)N(Cc1nc(CC)no1)C2` | - | 1.668 | - |
| `CCc1nc2c(N3CCC4(CC3)CC(=O)N(CC(C)C)C4)ncnc2o1` | 0.4555 | 3.105 | 0.8032 |
| `Cc1nc(C)n(C2CCCN(C(=O)c3ccc(N(C)C)nn3)C2)n1` (stereo not drawn) | 1.584 | 4.903 | 8.718 |
| `Cc1oc(C)c(C(=O)NCc2ccccc2CN(C)C)c1C` | -0.8139 | -30.23 | 8.696 |
| `c1ccc(CCN2CCn3cc(Cn4cccn4)nc3C2)cc1` | 3.499 | - | 8.521 |
| `COc1c(C2CCCN2C(=O)c2ccc(C#N)c(C)n2)c(C)nn1C` (stereo not drawn) | 1.137 | 6.325 | 6.997 |
| `CN(C(=O)CN1CCCc2cc(F)cc(F)c21)c1ccccc1` | 3.755 | 5.256 | 7.495 |
| `O=C(NCCn1cccc1)C1CCCN(C2CCCC2)C1` (stereo not drawn) | 1.212 | 0.1494 | -1.631 |
| `Cc1nccc(CNC(=O)NC(c2ncc(C)s2)C2CC2)n1` (stereo not drawn) | -3.355 | 1.951 | -6.752 |
| `Cn1ccc(CN2CCC3(CCCN3CC3CC3)CC2)n1` | 4.728 | - | -1.733 |
| `CCNC(=O)[C@@H]1C[C@H](NC(=O)c2cncnc2C)CN1CCCSC` | 1.155 | 4.362 | 9.247 |
| `CC(C)c1ccc(CN[C@@H]2COC[C@H]2c2ccc(F)cc2)cc1` | 1.316 | -35.07 | -2.331 |
| `CC(NCc1cccs1)c1ccc(OCc2nccn2C)cc1` (stereo not drawn) | 2.369 | -2.813 | -3.398 |
| `O=C(C1CCOCC1)N1C[C@H]2C[C@H](OCc3ccccc3)C[C@H]2C1` | 0.7779 | - | -0.4854 |
| `CCOCc1nc2c(c(NC(CC)c3ccnn3C)n1)CCNCC2` (stereo not drawn) | 3.611 | -4.715 | -15.66 |
| `Cc1c[nH]c(CN2CC[C@@]3(O)CCN(C(=O)C4CCCC4)C[C@H]3C2)n1` | 5.3 | - | -1.613 |
| `CC(NC1CCN(C(=O)C2CCCCC2)CC1)c1nccs1` (stereo not drawn) | 0.8713 | 4.779 | 5.186 |
| `CC[C@H]1CN(S(=O)(=O)c2ccccc2)CC[C@H]1CC(=O)O` | 3.608 | -6.461 | -2.483 |
| `O=C(NCC(F)(F)F)C1CSCN1S(=O)(=O)c1ccc(F)cc1Cl` (stereo not drawn) | -0.2355 | -7.38 | 1.399 |
| `CCc1nnc2n1CCN(C(=O)c1nc(-c3ccco3)sc1C)C2` | 1.079 | -20.71 | 1.312 |
| `CN(Cc1ccncc1)C(=O)Nc1cnn(CC(N)=O)c1` | 8.468 | -0.1181 | 3.165 |
| `CN1C2(CCN(Cc3ccc(F)cc3)C2)c2ccccc2S1(=O)=O` (stereo not drawn) | 2.023 | -19.49 | -8.402 |
| `CN(C)c1nccc(C2CCN(C(=O)CO)CC2)n1` | -1.018 | -2.454 | -1.36 |
| `Cc1cc(NC(=O)CN(C)C2CCCN(c3cccnn3)C2)n(C)n1` (stereo not drawn) | 1.341 | 0.8161 | 8.848 |
| `Cc1ccccc1-c1cc(CC2(C(=O)O)CCOCC2)on1` | 1.567 | 11.75 | 0 |
| `CCn1cnnc1C1CCN(C(=O)c2cccc(C)c2C)CC1` | -2.742 | 8.621 | -2.71 |
| `COCCO[C@H]1CCN(C(=O)c2cccnc2)[C@H]1Cc1cnn(C)c1.O=C(O)C(F)(F)F` | - | 4.777 | - |
| `CN(C)c1ncc(-c2cc(C(=O)NCCC#N)n(CC3CC3)c2)cn1.O=C(O)C(F)(F)F` | - | 11.68 | - |
| `Cc1cccc(C(=O)N2Cc3ccccc3C3(CCN(C)CC3)C2)n1` | 9.183 | -4.176 | -7.099 |
| `COc1ccc(CNCc2ccnc(N3CCOCC3)c2)cc1OC` | -0.7502 | -27.29 | 1.554 |
| `O=C(O)C(F)(F)F.O=C(O)C(F)(F)F.O=C1COC2(CCN(Cc3cccnc3)CC2)CN1c1ccccc1` | - | -28.89 | - |
| `CCOCCn1nc(C)cc1C(=O)N1CC[C@](C)(O)[C@H](C)C1` | 2.567 | 2.539 | -4.051 |
| `O=C(O)C(F)(F)F.[H][C@@]12COC[C@@H](CC(=O)N3CCCCO3)[C@]1([H])CN(CC1CC1)C2` | - | 2.044 | - |
| `COc1cccc(CN2C[C@@H]3CC[C@@](O)(c4ccccn4)[C@@H]3C2)c1OC` | 0.5214 | - | 0.7264 |
| `O=C(C1CN(CC2CCOCC2)CC12CCOCC2)N1CCCC1` (stereo not drawn) | 1.543 | - | 6.352 |
| `Cc1noc(C[C@@H]2COC[C@H]3CN(C(=O)C4=CCCC4)C[C@@H]23)n1` | 4.173 | - | - |
| `O=C(CCc1cccs1)N1CCC(N2CCNC2=O)CC1` | 8.889 | -8.565 | 6.923 |
| `COc1ccccc1CNC(Cn1cncn1)c1ccccc1` (stereo not drawn) | 2.107 | 23.56 | 6.818 |
| `CN(C)CCN(C)S(=O)(=O)CC1CCOCC1` | 3.336 | -11.58 | -1.195 |
| `O=C(c1cnccn1)N1CCN(Cc2cccnc2)c2ncccc2C1` | -2.052 | -3.232 | -0.6165 |
| `CC(=O)NCC(=O)N1CCn2cc(CN3CCN(C)CC3)nc2C1` | 3.633 | - | -5.909 |
| `COc1cc(C2(C(=O)NC3CCC4(CC3)OCCO4)CC2)ccc1C` | 1.328 | 1.268 | -2.521 |